No constants are given. Whether binding was seen depends on the method and setting. In cells and extracts the contact can be indirect. Some binding calls cover weakened binding; strength is not graded here.

By UniProt entry, the sequences of proteins in these tests, tags left out. Where a name states a change or a piece, a line headed by the entry shows the natural chain unless it says otherwise.
UniProt Q16531: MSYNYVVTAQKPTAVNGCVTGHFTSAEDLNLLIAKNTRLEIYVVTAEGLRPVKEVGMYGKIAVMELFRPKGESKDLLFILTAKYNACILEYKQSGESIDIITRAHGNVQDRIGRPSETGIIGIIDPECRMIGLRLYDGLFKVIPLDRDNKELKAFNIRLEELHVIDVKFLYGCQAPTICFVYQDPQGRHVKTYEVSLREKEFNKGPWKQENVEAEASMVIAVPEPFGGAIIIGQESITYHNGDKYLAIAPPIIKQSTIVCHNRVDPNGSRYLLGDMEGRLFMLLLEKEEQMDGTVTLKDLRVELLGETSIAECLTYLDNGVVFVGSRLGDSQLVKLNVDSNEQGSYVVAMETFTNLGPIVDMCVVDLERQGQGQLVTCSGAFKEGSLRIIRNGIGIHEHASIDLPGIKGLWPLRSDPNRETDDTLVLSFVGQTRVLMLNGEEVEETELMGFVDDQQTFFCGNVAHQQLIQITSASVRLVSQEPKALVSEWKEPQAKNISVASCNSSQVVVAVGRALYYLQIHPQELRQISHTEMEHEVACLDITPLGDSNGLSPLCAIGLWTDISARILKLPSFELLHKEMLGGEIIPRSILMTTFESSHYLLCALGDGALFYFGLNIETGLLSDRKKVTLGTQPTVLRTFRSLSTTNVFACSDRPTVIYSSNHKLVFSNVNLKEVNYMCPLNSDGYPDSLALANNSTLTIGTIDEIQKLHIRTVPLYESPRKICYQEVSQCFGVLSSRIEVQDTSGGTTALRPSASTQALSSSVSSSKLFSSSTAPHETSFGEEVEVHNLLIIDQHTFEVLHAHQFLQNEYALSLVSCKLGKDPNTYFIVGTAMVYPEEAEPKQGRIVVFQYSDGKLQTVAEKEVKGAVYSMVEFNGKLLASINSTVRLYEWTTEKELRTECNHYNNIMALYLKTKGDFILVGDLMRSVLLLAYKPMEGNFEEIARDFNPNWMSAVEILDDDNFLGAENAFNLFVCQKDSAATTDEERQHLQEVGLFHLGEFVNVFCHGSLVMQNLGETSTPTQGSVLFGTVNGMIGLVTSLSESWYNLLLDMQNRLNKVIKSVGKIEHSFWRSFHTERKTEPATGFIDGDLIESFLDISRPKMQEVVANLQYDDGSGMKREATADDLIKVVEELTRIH
UniProt Q8IY18: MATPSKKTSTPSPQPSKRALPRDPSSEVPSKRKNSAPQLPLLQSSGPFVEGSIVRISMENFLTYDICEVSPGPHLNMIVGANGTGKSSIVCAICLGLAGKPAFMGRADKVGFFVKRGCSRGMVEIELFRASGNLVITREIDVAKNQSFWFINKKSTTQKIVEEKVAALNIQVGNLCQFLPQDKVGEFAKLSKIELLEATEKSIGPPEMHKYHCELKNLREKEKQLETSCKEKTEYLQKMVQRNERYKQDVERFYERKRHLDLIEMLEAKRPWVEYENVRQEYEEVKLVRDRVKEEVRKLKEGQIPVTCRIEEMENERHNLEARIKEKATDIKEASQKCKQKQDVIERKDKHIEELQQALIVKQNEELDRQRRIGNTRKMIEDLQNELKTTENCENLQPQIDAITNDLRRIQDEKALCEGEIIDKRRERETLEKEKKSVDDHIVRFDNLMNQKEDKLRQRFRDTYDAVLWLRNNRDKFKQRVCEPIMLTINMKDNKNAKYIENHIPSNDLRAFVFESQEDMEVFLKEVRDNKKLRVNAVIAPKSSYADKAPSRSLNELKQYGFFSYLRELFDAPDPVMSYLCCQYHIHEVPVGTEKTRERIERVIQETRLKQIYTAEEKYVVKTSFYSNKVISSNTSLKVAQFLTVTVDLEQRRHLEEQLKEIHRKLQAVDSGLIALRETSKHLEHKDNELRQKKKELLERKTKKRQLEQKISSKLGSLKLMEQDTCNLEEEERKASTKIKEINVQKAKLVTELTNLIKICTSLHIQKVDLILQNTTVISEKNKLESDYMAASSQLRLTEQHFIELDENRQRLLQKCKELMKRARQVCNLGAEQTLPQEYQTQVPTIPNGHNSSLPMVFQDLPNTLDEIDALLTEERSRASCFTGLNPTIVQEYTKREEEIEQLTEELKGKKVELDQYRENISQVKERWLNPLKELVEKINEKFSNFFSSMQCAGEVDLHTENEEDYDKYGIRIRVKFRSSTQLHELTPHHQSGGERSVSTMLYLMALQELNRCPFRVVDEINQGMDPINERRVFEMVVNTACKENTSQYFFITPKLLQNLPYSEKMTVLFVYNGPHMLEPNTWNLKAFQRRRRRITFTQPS

This experiment addresses Flag-DDB1 (UniProt Q16531). Put plainly: co-IP; 293 T cells transfected with HA-TRIM14, Flag-DDB1 or GST-HBx plasmids as indicated; 36 h later MG132 (10 uM) for 8 h; ANTI-FLAG M2 Affinity Gel; immunoblot. In general terms: In western blotting, separated proteins are transferred to a membrane and probed.

Take “Smc5/6 (from UniProt Q8IY18 1-1101; Q96SB8 1-1091) (complex)”: the binding result was “binds”.
